{"source": "patent US5041436A", "about": "“1-arylsulphonyl-2-piperidinone derivatives, process and intermediates for the preparation thereof, their application as antispasmodics and compositions containing them” (Roussel Uclaf, priority 1989, dated 1991)", "tested_on": "cholinomimetic effects induced by carbachol", "assay": "In vivo anticholinergic action: inhibition of cholinomimetic effects induced by carbachol in mice", "design": "species or system CD1 male mice", "conditions": "control mice, 1 mg/kg s.c.", "description": "The anticholinergic activity of the compounds was determined by assessing the capacity to inhibit the cholinomimetic effects induced by carbachol. Atropine sulphate was employed as a reference product.\nCD1 male mice weighing 25 to 30 g were used. They were distributed in groups of 6 animals and treated intraperitoneally with scalar doses of the products or 0.25% Methocel for the controls. 12 animals were used for each dose. 30 minutes after administration of the compounds, the mice were injected subcutaneously with 1 mg/kg of carbachol dissolved in physiological saline.\nEach animal was examined 30 minutes after the injection of carbachol to assess the presence of diarrhoea, salivation and eye watering; in addition, the body temperature was measured by means of a thermocouple inserted 1.5 cm into the rectum.\nFor each compound, we have determined and recorded in the following table the dose capable of inhibiting the appearance of the carbachol-induced cholinometric symptoms in 50% of the animals, and of increasing by 1° C. the hypothermic effect induced by the cholinergic agent."}
{"smiles": "C[N+](C)(C)CCOC(N)=O", "note": "[Carbachol, carbachol, reference compound]", "values": [{"measurement": "decrease in rectal temperature induced by carbachol", "result": "approximately 2.5 °C"}, {"measurement": "diarrhoea induced by carbachol", "result": "all the control mice"}, {"measurement": "eye watering induced by carbachol", "result": "all the control mice"}, {"measurement": "salivation induced by carbachol", "result": "all the control mice"}]}
